Data: publication PMC4525385
Results are given in words; binding and its absence hold for the method and conditions named. For part of these data: Binding calls can cover weak binding; strength is not graded here.

Protein sequences, listed by entry. Tags and fused reporters are not part of them. Lines headed by an entry give the natural chain unless they say otherwise; changes in a name come on top. Residues count along the entry.
UniProt P0ADE4: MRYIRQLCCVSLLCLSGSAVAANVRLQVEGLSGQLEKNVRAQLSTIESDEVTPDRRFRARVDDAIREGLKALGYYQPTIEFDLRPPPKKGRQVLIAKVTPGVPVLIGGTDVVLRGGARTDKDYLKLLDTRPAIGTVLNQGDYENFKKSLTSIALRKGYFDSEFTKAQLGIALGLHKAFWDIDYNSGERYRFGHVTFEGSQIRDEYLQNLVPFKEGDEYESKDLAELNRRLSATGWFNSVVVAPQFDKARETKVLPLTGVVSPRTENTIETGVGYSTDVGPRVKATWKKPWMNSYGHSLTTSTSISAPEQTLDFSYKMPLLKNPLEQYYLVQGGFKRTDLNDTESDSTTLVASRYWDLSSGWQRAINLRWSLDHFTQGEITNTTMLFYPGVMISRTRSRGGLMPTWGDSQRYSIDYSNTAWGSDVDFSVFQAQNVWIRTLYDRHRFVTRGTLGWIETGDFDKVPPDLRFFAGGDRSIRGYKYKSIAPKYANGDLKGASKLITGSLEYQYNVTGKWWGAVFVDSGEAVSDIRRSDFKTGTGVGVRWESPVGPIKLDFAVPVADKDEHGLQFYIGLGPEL
UniProt P39180, residues 53-1039: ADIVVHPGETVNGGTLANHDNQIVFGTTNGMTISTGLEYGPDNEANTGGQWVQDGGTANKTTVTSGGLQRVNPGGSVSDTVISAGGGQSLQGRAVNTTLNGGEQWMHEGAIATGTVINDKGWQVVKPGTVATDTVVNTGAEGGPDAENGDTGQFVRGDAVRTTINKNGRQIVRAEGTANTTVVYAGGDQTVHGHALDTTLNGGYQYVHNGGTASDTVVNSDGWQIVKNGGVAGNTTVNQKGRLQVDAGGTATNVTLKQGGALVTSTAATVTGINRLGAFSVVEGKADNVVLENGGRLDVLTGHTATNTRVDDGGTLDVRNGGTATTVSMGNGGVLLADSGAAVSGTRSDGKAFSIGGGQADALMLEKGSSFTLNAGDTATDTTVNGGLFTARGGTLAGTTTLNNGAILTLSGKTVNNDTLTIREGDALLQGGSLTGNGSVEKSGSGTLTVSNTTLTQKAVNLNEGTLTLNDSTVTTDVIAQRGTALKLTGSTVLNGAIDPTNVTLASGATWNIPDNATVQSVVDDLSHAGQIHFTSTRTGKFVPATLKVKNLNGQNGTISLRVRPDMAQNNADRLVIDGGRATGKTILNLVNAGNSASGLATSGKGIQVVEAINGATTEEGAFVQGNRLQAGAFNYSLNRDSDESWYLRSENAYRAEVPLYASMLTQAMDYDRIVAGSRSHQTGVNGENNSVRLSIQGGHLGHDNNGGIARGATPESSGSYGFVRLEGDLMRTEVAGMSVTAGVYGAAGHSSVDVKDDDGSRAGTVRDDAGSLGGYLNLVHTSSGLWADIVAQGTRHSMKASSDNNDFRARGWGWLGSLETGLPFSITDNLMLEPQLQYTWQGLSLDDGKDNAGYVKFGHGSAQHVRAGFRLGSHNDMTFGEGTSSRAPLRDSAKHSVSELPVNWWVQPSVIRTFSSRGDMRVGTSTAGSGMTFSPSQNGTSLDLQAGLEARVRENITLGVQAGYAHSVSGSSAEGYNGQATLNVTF

Columns and labels:
Test in all cases: QCM-D; histidine-tagged TamA or deletion form attached to a Ni-ANTA gold surface, POPC membrane layer reconstituted around it; then 0.5 mL of 0.2 mg/ml TamB (step 3) and 0.5 mL of 0.2 mg/ml urea-denatured Ag43 (step 4) added one after the other, washes with 20 mM TRIS, 150 mM NaCl; 25 °C; both purified
[1] = molecular target: TamA(ΔPOTRA1–3) (E. coli) (UniProt P0ADE4)
[2] = molecular target: TamA(ΔPOTRA1), histidine-tagged (pBADTamA-C-term-6xHisΔP1) (E. coli) (UniProt P0ADE4)
[3] = molecular target: TamA(ΔPOTRA1–2), histidine-tagged (pBADTamA-C-term-6xHisΔP1–2) (E. coli) (UniProt P0ADE4)

Ag43, urea-denatured (from UniProt P39180 53-1039)
binding [1]: no binding (tested: 0.2 mg/ml) | binding [2]: binds | binding [3]: no binding (tested: 0.2 mg/ml)
